# Laboratory results published in paper PMC10539501 (Nature Communications, 2023).
# Legend:
# in vitro = in vitro ADME, human; settings: human
# Caco-2 cells = experiment: in vitro; format: in vitro ADME, human; settings: Caco-2
# 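Note: Caco-2 monolayers used 21 days after seeding in HBSS-HEPES buffer with 1% DMSO, donor and acceptor levels quantified by LC-MS/MS, TEER checked before and after.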
smiles,measurement,setting,value
"CC(C)NCC(O)COc1ccc(CC(N)=O)cc1 (centres unmarked) [Atenolol, reference compound]",Papp A→B,"in vitro; Caco-2, Papp A-B avg",0.392 ×10⁻⁶ cm/s
same,Papp B→A,"in vitro; Caco-2, Papp B-A avg",1.36 ×10⁻⁶ cm/s
same,Papp A-B avg (second block),Caco-2 cells,0.39 ×10⁻⁶ cm/s
same,Papp A-B set 1 (second block),Caco-2 cells,0.26 ×10⁻⁶ cm/s
same,Papp A-B set 2 (second block),Caco-2 cells,0.52 ×10⁻⁶ cm/s
same,Papp B-A avg (second block),Caco-2 cells,1.4 ×10⁻⁶ cm/s
same,Papp B-A set 1 (second block),Caco-2 cells,1.3 ×10⁻⁶ cm/s
same,Papp B-A set 2 (second block),Caco-2 cells,1.4 ×10⁻⁶ cm/s
